Assay results: publication PMC10762670
Residue numbers refer to the chain shown, from its start. Results are given in words; binding and its absence hold for the method and conditions named. In cells and extracts the contact can be indirect. Some binding calls cover weakened binding; strength is not graded here. Tags and fused reporters may be left off the sequences shown.

Experiments:
[1] = target: T1, FLAG-tagged RBM42-A438T (patient missense variant c.1312G>A, p.A438T) (human) (UniProt Q9BTD8); experiment: co-IP; 293T cells transfected with 2.5 ug DNA of FLAG-tagged RBM42, 48 h; NETN lysis buffer (250 mmol/L NaCl, 5 mmol/L EDTA, 50 mmol/L Tris-HCl, 0.5% NP40); 1 ug FLAG antibody overnight at 4°C, Protein A/G Plus-Agarose; immunoblot for endogenous hnRNP K
T1 sequence: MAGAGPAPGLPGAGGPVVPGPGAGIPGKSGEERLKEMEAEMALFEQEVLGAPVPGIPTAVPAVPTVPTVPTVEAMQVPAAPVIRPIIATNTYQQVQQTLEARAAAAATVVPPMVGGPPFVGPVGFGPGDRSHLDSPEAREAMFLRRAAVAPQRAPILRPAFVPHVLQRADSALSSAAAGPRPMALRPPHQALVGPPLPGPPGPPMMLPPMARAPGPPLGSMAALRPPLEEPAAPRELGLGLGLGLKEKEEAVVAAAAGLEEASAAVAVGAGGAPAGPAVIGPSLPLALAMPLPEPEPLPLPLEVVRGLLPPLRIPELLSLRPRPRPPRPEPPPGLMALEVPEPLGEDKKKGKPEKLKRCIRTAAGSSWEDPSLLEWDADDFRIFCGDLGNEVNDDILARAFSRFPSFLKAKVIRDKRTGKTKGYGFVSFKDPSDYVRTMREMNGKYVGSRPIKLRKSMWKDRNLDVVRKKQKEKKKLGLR

[2] = target: T2, FLAG-tagged RBM42-WT (RNA-binding motif protein 42, wild type) (human) (UniProt Q9BTD8); experiment: as above
T2 sequence: T1 sequence with T438A

binding [1]: binds
binding [2]: binds
Substance: hnRNP K (heterogeneous nuclear ribonucleoprotein K) (from UniProt P61978 1-463)
